# Source: PubChem BioAssay AID493014 (National Center for Advancing Translational Sciences (NCATS), 2011)
# Out of some 340,000 compounds screened, about 170 (0.05%) were called active. Inconclusive results, whose numbers are uncertain, are shown with a selection of clear calls. The call rests on the fitted dose curve; in most records, active means well fitted inhibition curve with a large enough effect in the signal ratio, with a control signal flat (not every such curve was filed as active); inconclusive means small, poorly fitted or top-dose-only effect, or effect the other way, or a change in a side signal; inactive means flat fitted curve, though single readings scatter; the % refers to the signal ratio. Where the call is inconclusive, the potency comes from a doubtful curve fit.
# Experiment: qHTS Assay to Find Inhibitors of Chronic Active B-Cell Receptor Signaling;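 on activity change, negative = inhibition: plate controls were basal doxycycline-induced cells for no effect and cells given 10 µM MG132 for full effect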
# Settings: ABC-DLBCL IkBa-CBG/CBR reporter, luminescence ratio (green luciferase fused to IkBa over red control in TMD8 lymphoma cells), 4 h; activity change, negative = inhibition: at 46.1 µM (top of the series) unless noted
# How it was run: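 Doxycycline induced both beetle luciferases in TMD8 lymphoma cells; IKK-driven degradation limits the IkappaBalpha-fused green signal, while red luminescence normalises for cell number and nonspecific effects. Compounds tested up to 46 uM, 4 hrs.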
# Potency means the concentration at half of the fitted maximal effect.
SMILES,"activity change, negative = inhibition",Potency
NC(=O)COC(=O)/C=C/c1ccc2ccccc2n1,inconclusive: 0.115%,
CC(=O)c1c(O)cc(O)c(C(C)=O)c1O,inconclusive: -8.38%,
CC12CC(c3ccccc3O1)N(C(=O)c1ccc(Br)o1)C(=O)N2c1ccccc1 (stereo not drawn),inconclusive: 6.08%,
CC(=O)NC(c1ccco1)c1cc(Cl)c2ccc(N3CCCCC3)nc2c1O (stereo not drawn),inactive: -4.73%,
CCCC(=O)NC(c1ccccc1Cl)c1ccc2cccnc2c1O (stereo not drawn),,"inconclusive: 10 µM [falling, partial curve, poor fit]"
Cc1ccc(C(NC(=O)N2CC(C)OC(C)C2)C(Cl)Cl)cc1F (stereo not drawn),,"inconclusive: 25.9 µM [falling, partial curve]"
CCOc1cc(S(=O)(=O)N2CCOCC2)ccc1F,inconclusive: 1.86%,
O=C(NCc1ccccc1)c1ccc(S(=O)(=O)N2CCCc3ccccc32)cc1,inconclusive: 1.06%,
CCN(c1ccc(NC(=O)CSc2ccc3c(c2)OCCO3)cc1)C(C)C,,"inconclusive: 25.9 µM [falling, partial curve, poor fit]"
Cc1ccc(C(=O)NC(=S)NNC(=O)COc2ccc([N+](=O)[O-])cc2)cc1,inactive: 14.3%,
COc1ccccc1N1CCN(CCCCOc2cccc3ccccc23)CC1,inactive: -19.3%,
CC(C)CC1NC(=O)c2ccccc2-n2c1nc1cc(F)ccc1c2=O (stereo not drawn),inconclusive: 5.34%,
CCN(CC)C(=O)CSc1nc2ccccc2c(=O)n1Cc1ccco1,inconclusive: 19.8%,
Cc1ccc(NC(=O)Cn2c(-c3cncs3)nc3ccccc32)cc1Br,inconclusive: 6.52%,
C/C(=C\C(=O)c1ccccc1)NNC(=O)c1ccc(Cl)cc1,,"inconclusive: 20 µM [falling, single point]"
Cc1ccc[n+](CC(=O)Nc2c(Cl)cc(Cl)cc2Cl)c1,,"inconclusive: 35.5 µM [falling, single point]"
CC(C)NC(=O)NC(=O)CSc1nnc(COc2ccccc2F)n1C(C)C1CC2CCC1C2 (stereo not drawn),inconclusive: -6.24%,
CCCc1nccn1S(=O)(=O)c1cc(Br)ccc1OC,inconclusive: -17.6%,
COc1ccc(C)cc1S(=O)(=O)N1CCN(S(=O)(=O)c2cc(C)ccc2OC)C(C)C1 (stereo not drawn),inconclusive: -2.14%,
COc1cccc(N2CCN(S(=O)(=O)c3ccc4nc(-c5ccccc5)[nH]c4c3)CC2)c1,,"inconclusive: 4.61 µM [falling, full curve, poor fit]"
COc1ccc(-n2ncc3c(NCC(C)C)ncnc32)cc1,inconclusive: 10.7%,
Nc1ccc(C(=O)Nc2ccco2)cc1,,"inconclusive: 29.1 µM [falling, single point]"
O=c1oc(Nc2cccc(F)c2)nc2ccccc12,,"inconclusive: 3.55 µM [rising, partial curve, poor fit]"
O=C(NCCc1cccc(Cl)c1)c1ccc(Cl)c([N+](=O)[O-])c1,inconclusive: 19.6%,
COc1ccc(NC(=S)NC(=O)c2csnn2)cc1,inconclusive: -19.5%,
CCN1CCN(CCCNC(=O)C2CCCN(c3nc4c(C)cc(C)cc4s3)C2)CC1 (stereo not drawn),,"inconclusive: 22.4 µM [falling, partial curve, poor fit]"

SMILES,"activity change, negative = inhibition",Potency
COc1ccc(/C=C/C(=O)c2ccc(Cl)cc2)c(OC)c1,,"inconclusive: 25.1 µM [falling, single point]"
CC(=O)Nc1cccc(Oc2ncnc3scc(-c4ccc(C(C)C)cc4)c23)c1,inactive: -0.332%,
O=C(NCc1ccc(F)cc1)c1cc2sccc2n1Cc1ccc(F)cc1,inconclusive: -1.7%,
CCOC(=O)C(=NC1CCCCC1)NNc1cccc(C(F)(F)F)c1,,"inconclusive: 25.9 µM [rising, partial curve, poor fit]"
Clc1cnc(N/N=C/c2ccco2)c(Cl)c1,,"inconclusive: 29.1 µM [cytotoxic, single point]"
O=C(NCc1ccc(F)cc1)c1ccc(S(=O)(=O)Nc2cccc(C(F)(F)F)c2)cc1,inconclusive: 7.96%,
CCC(CO)Oc1cc(NC(=O)c2cccc3ccccc23)c2ncn(C(C)C)c2c1 (stereo not drawn),inconclusive: -6.76%,
COc1ccc(OCCNC(=O)/C=C/c2ccccc2)cc1,inconclusive: 11.8%,
CS(=O)(=O)c1ccc(Cl)c(NC(=O)COC(=O)CNC(=O)c2ccccc2)c1,inconclusive: 16.1%,
CC(C)(C)c1ccc(OCC(=O)Nc2ccc3c4c(cccc24)C(=O)NC3=O)cc1,inconclusive: 5.72%,
Cc1nc(C(=O)NCCCO)cc2c1[nH]c1ccccc12,inconclusive: -20.3%,
CCOC(=O)CSc1nc(C)c2cccc(C)c2n1,,"inconclusive: 35.5 µM [falling, single point]"
CC(=O)c1ccc(N2CCN(C(=O)c3noc4c3CSc3ccccc3-4)CC2)cc1,,"inconclusive: 17.8 µM [falling, single point]"
CN(CC(=O)NC(=O)NC1CCCCC1)CC(=O)Nc1ccc(OC(F)(F)F)cc1,inconclusive: -14.7%,
Cc1ccc(-c2nc3cc(C)ccc3o2)cc1,,"inconclusive: 29.1 µM [falling, single point]"
O=C(c1ccc(Cl)cc1)N1CCC(C(=O)N2CCN(c3ncccn3)CC2)CC1,inactive: -3.16%,
CC(/C=C/c1ccc(N(C)C)cc1)=N\N=C(/N)SC1CC(=O)N(c2ccc(C(=O)O)cc2)C1=O (stereo not drawn),,"inconclusive: 2.06 µM [falling, partial curve, poor fit]"
Nc1cc2ccncc2c2ccccc12,inconclusive: -3.87%,
COc1ccc(-c2nnc(Nc3ccc(CC(N)=O)cc3)c3ccccc23)cc1,,"inconclusive: 23.1 µM [falling, partial curve, poor fit]"
C/C(=N\Nc1cc(N2CCOCC2)nc(C)n1)c1ccc(F)cc1,inconclusive: -13.8%,
O=c1c2ccccc2c(-c2n[nH]c(=S)o2)nn1Cc1ccccc1,inconclusive: 8.73%,
CCC(Sc1nnnn1C)C(=O)Nc1ccc(C(C)=O)cc1 (stereo not drawn),inconclusive: 25.1%,
CCC1CCCCN1CCNC(=O)CCS(=O)(=O)c1ccc(Br)cc1 (stereo not drawn),inactive: 6.31%,
CCN(Cc1cnn(C)c1)C(=O)c1cc(COc2cc(C)c(Cl)c(C)c2)on1,,"inconclusive: 22.4 µM [falling, single point]"
CC(=O)Nc1ccc(C2=CC(=O)C[C@H](c3ccc(Cl)cc3)C2)cc1,inconclusive: -3.89%,
CCOC(=O)COc1c(OC)cc(Cl)cc1C1Nc2ccccc2C(=O)N1c1ccccc1 (stereo not drawn),inconclusive: -7.46%,

# 16 entries from above, ordered by formula weight, ascending.
SMILES,"activity change, negative = inhibition",Potency
Nc1cc2ccncc2c2ccccc12,inconclusive: -3.87%,
Cc1ccc(-c2nc3cc(C)ccc3o2)cc1,,"inconclusive: 29.1 µM [falling, single point]"
Clc1cnc(N/N=C/c2ccco2)c(Cl)c1,,"inconclusive: 29.1 µM [cytotoxic, single point]"
COc1ccc(OCCNC(=O)/C=C/c2ccccc2)cc1,inconclusive: 11.8%,
CCC(Sc1nnnn1C)C(=O)Nc1ccc(C(C)=O)cc1 (stereo not drawn),inconclusive: 25.1%,
C/C(=N\Nc1cc(N2CCOCC2)nc(C)n1)c1ccc(F)cc1,inconclusive: -13.8%,
O=c1c2ccccc2c(-c2n[nH]c(=S)o2)nn1Cc1ccccc1,inconclusive: 8.73%,
CC(=O)Nc1ccc(C2=CC(=O)C[C@H](c3ccc(Cl)cc3)C2)cc1,inconclusive: -3.89%,
COc1ccc(-c2nnc(Nc3ccc(CC(N)=O)cc3)c3ccccc23)cc1,,"inconclusive: 23.1 µM [falling, partial curve, poor fit]"
CC(C)(C)c1ccc(OCC(=O)Nc2ccc3c4c(cccc24)C(=O)NC3=O)cc1,inconclusive: 5.72%,
CCN(Cc1cnn(C)c1)C(=O)c1cc(COc2cc(C)c(Cl)c(C)c2)on1,,"inconclusive: 22.4 µM [falling, single point]"
CC(=O)Nc1cccc(Oc2ncnc3scc(-c4ccc(C(C)C)cc4)c23)c1,inactive: -0.332%,
O=C(c1ccc(Cl)cc1)N1CCC(C(=O)N2CCN(c3ncccn3)CC2)CC1,inactive: -3.16%,
CC(=O)c1ccc(N2CCN(C(=O)c3noc4c3CSc3ccccc3-4)CC2)cc1,,"inconclusive: 17.8 µM [falling, single point]"
CS(=O)(=O)c1ccc(Cl)c(NC(=O)COC(=O)CNC(=O)c2ccccc2)c1,inconclusive: 16.1%,
CCOC(=O)COc1c(OC)cc(Cl)cc1C1Nc2ccccc2C(=O)N1c1ccccc1 (stereo not drawn),inconclusive: -7.46%,

# Remaining list, next part:

SMILES,"activity change, negative = inhibition",Potency
CCOc1ccc2c(c1)C(C)=CC(C)(C)N2S(=O)(=O)c1ccc(C)cc1,,"inconclusive: 3.16 µM [falling, full curve, poor fit]"
C/C(=N\NC(=O)c1cccc(S(=O)(=O)N2CCOCC2)c1)c1ccco1,inconclusive: -7.92%,
Cc1ccc(-c2cc(-c3ccc(F)cc3)n[nH]2)c(O)c1,,"inconclusive: 25.1 µM [falling, single point]"
O=C1CCCC2=C1C(c1ccncc1)n1c(nc3ccccc31)N2 (stereo not drawn),inconclusive: 3.83%,
O=C(NNC(=S)NC(=O)c1cccnc1)c1ccc(F)cc1,,"inconclusive: 35.5 µM [rising, single point]"
Cc1cc(C)c(C(=O)CSc2n[nH]c(=O)n2C2CC2)cc1C,inactive: -3.27%,
COc1ccc(CCNC(=O)COC(=O)Cn2cnc3ccccc32)cc1OC,inconclusive: 3.08%,
O=C(CSc1nc(Cc2ccccc2)nc2ccccc12)Nc1nc2c(s1)CCCC2,inconclusive: -27.3%,
CC(=O)Nc1ccc(CN(C)CC2CCCN(CCc3cccc(C(F)(F)F)c3)C2)cc1 (stereo not drawn),inactive: -0.59%,
O=C(Cc1cccc2ccccc12)NNC(=O)Nc1ccc(Cl)cc1,inconclusive: 6.77%,
Fc1ccccc1/C=C1\CCCC2=C1Nc1ncnn1C2c1ccccc1F (stereo not drawn),,"inconclusive: 18.4 µM [rising, single point]"
CCOC(=O)C1=C(C)N(C)C(=O)NC1c1c(C)nn(-c2ccccc2)c1C (stereo not drawn),inconclusive: 10.6%,
Cc1ccccc1Cn1ccc(NC(=O)c2onc(C)c2Cl)n1,inconclusive: 15%,
Cc1nn(Cc2ccccc2Cl)c(C)c1C(=O)NC1=NCCS1,inconclusive: 8.47%,
Oc1ccccc1-c1cc(-c2ccc(F)cc2)n[nH]1,,"inconclusive: 31.6 µM [rising, partial curve]"
Cc1c(C(=O)N2CCCC2)sc(NC(=O)c2ccco2)c1C#N,inconclusive: -4.38%,
CC(=O)OCC1(C)CN(c2ccccc2)N(C(C)=O)C1=O (stereo not drawn),,"inconclusive: 3.98 µM [falling, partial curve, poor fit]"
CCOC(=O)CC(=O)CSc1nnc2c(n1)[nH]c1ccccc12,inconclusive: -11.2%,
CCCc1cnc(N2CCN(C(=O)c3ccccc3)CC2)nc1,inconclusive: -4.73%,
Cc1ccc(OCC(=O)N2CC3(C)CC2CC(C)(C)C3)cc1 (stereo not drawn),inconclusive: 22.7%,
CCCCn1c(=O)c2c(nc3n2CCCN3Cc2ccccc2)n(C)c1=O,inactive: 3.95%,
Cc1ccc(S(=O)(=O)Nc2cc(C(F)(F)F)ccc2N2CCOCC2)cc1C,inactive: -1.3%,
CCN(CC(=O)NC(C)(C)C)C(=O)c1ccc2c(c1)S(=O)(=O)c1ccccc1C2=O,inconclusive: 2.58%,
Cc1ccc(C(=O)NC(=S)N2CCN(c3cc(C)ccc3C)CC2)cc1,inconclusive: 7.33%,
COc1ccc(/C=C/C(=O)Nc2cccc(S(=O)(=O)NC3=NCCCCC3)c2)cc1,,"inconclusive: 12.6 µM [falling, partial curve, poor fit]"
c1ccc(Cn2c(-c3ccco3)nc3nc4ccccc4nc32)cc1,inactive: 6.05%,
